Results taken from article PMC11018626.
For some of these results: Weaker means in comparison with the reference protein, sequence or condition of that experiment. For some of these results: Construct, isoform or probe ends are uncertain for at least one entry. For some of these results: At least one verdict rests on a figure or table, not on a statement of the authors.

How the values were obtained:
[1] = target: Rho (transcription termination factor) (Escherichia coli) (UniProt P0AG30); test: fluorescence anisotropy; conditions: Anisotropy: 20 mM Na-HEPES pH 7.5, 150 mM KCl, 5% glycerol, 5 mM MgCl2, 0.5 mM TCEP, 5 µM FAM-dC15 or 2 µM FAM-rU12, temperature not stated, recombinant protein, residues 1-419, label: 5'-FAM
[2] = target: Rho K115E (Escherichia coli) (UniProt P0AG30); test: analytical SEC; conditions: recombinant protein; residues 1-419
[3] = target: Rho (transcription termination factor) (Escherichia coli) (UniProt P0AG30); test: analytical SEC; conditions: recombinant protein; residues 1-419
[4] = tested on: Rho (transcription termination factor) + RNA polymerase + NusA + NusG; test: analytical SEC; conditions: recombinant protein, protein details: His6 on beta' (pVS10)

Sequence: CCCCCCCCCCCCCCC [dC15]
- binding result ([1]; Rof wt (0-100 µM), single-stranded DNA): binds more weakly

Sequence: GGGAUAACCCCGCUCUUACACAUUCCAGCCCUGAAAAAGGGCAUCAAAUUAAACCACACCUAUGGUGUAUGUCAAAUUAAACCACA [rut RNA (lambda tR1)]
- binding result [2]: binds more weakly
- binding result [3]: binds

Sequence: GTTATCCGCTCACAATGCCACACGCGCTGCTCGGCCGTTATTCGCAGCCC / GGGCTGCGAATAACGGCCGAGCAGCGTAGCATTACTTGTGAGCGGATAAC / ACACCUGGCGUGUGGC [rut-less RNA / DNA elongation scaffold]
- binding result ([4]; 3-fold excess of Rho hexamer over NusA/NusG-EC, no Rof): binds
- binding result ([4]; 10-fold excess Rof added to pre-formed complex, Rho dissociates): binds more weakly
- binding result ([4]; Rho pre-bound by Rof, impaired Rho association with NusA/NusG-EC): binds more weakly

Sequence: UUUUUUUUUUUU [rU12]
- binding result ([1]; 2 mM ADP-BeF3, 10 µM unlabeled dC15, Rof wt (0-100 µM)): binds more weakly
